From US20250387359A1, “COMPOUNDS AND METHODS FOR THE TREATMENT OF PARASITIC INFECTIONS” (THE BOARD OF TRUSTEES OF THE UNIVERSITY OF ILLINOIS, priority 2019, published 2025)

System: HCT-8 cells
Test: Compound cytotoxicity assay (WST-1) in HCT-8 cells
Type: cell-based, human
Method: Compound cytotoxicity assay. […] A colorimetric assay using the cell proliferation reagent WST-1 (Roche, USA) for the quantification of cell viability was performed. […] When the cells were confluent, the old medium was replaced with fresh medium with or without varying concentrations of chemical compound. After 24 h of culture, 10 μl of the cell proliferation reagent WST-1, (for quantification of cell viability) was added to each well, mixed and the plates incubated for 1 h at 37 C with 5% CO2 in the dark. […] Molecular Devices, USA).

COc1cc2c(c(OC)c1OC)-c1ccc(OC)c(=O)cc1[C@@H](N)CC2 [NSC36354]
IC50: 81.8 µM
